{
  "source": "PubChem BioAssay AID540276",
  "about": "(National Center for Advancing Translational Sciences (NCATS), 2011)",
  "note": "About 5,400 (1.8%) of roughly 300,000 compounds were called active. The inconclusive results got no clear call from the source; some entries with a clear call stand among them for comparison. Calls follow the shape of the full dose curve; tested in HEK293 cells. A potency beside an inconclusive call is a rough fit, not a confirmed value. % is scaled to controls: 0 for no effect and ±100 for the full control effect; potency is read from the fitted curve at half-maximal effect.",
  "data": [
    {"assay": "qHTS for inhibitors of binding or entry into cells for Marburg Virus", "details": "Marburg virus pseudotyped entry inhibition, cell reporter; activity change, negative = inhibition: at 37.8 µM (top of the series) unless noted", "values": [
      {"smiles": "CC(C)NC(=O)c1ccc(CSc2nc3ccncc3n2Cc2cccc(F)c2)cc1", "Potency": "inconclusive: 1.12 µM [inhibitor, partial curve, poor fit]"},
      {"smiles": "Cc1occc1C(=O)N=Nc1c(O)[nH]c2ccc(Br)cc12", "activity change, negative = inhibition": "inactive: 4.51%"},
      {"smiles": "CCN(C(=O)Cn1c(C(=O)OC)cc2sccc21)c1cccc(C)c1", "activity change, negative = inhibition": "inactive: -16.4% [at 46.1 µM]"},
      {"smiles": "CCN(CC)C(=O)C(=O)c1cn(CCOc2ccccc2)c2ccccc12", "Potency": "inconclusive: 2.82 µM [inhibitor, partial curve, poor fit]"},
      {"smiles": "N#C/C(=C\\c1c[nH]c2ccccc12)C(=O)NCC1CCCO1", "note": "(configuration not stated)", "Potency": "inconclusive: 22.4 µM [activator, single point]"},
      {"smiles": "O=C(O)c1c2c(nc3ccccc13)/C(=C/c1cccc([N+](=O)[O-])c1)CCC2", "Potency": "inconclusive: 1.58 µM [inhibitor, partial curve, poor fit]"},
      {"smiles": "Cc1cccc(N2CC(C(=O)OCC(=O)Nc3sccc3C(N)=O)CC2=O)c1C", "note": "(configuration not stated)", "activity change, negative = inhibition": "inactive: 0.623% [at 46.1 µM]"},
      {"smiles": "CS(=O)(=O)N1CCN(c2ccccc2NC(=O)c2ccc(Cl)cc2)CC1", "activity change, negative = inhibition": "inactive: -1.17%"},
      {"smiles": "O=c1[nH][nH]c(-c2ccccc2O)c1C(C[N+](=O)[O-])c1ccc(Cl)cc1Cl", "note": "(configuration not stated)", "activity change, negative = inhibition": "inactive: -9.78%"},
      {"smiles": "CSC[C@H]1CN(c2ccccc2)C(=O)[C@H]1CC(=O)Nc1ccc(Br)cc1", "Potency": "inconclusive: 0.01 µM [activator, full curve, poor fit]"},
      {"smiles": "CCC(CC)C(=O)Nc1ccc(S(=O)(=O)N2CCC(c3nc4ccccc4s3)CC2)cc1", "activity change, negative = inhibition": "inactive: 19.6% [at 46.1 µM]"},
      {"smiles": "Cc1cc(C)c[n+](CC(=O)c2ccc(-c3ccccc3)cc2)c1", "Potency": "inconclusive: 3.98 µM [inhibitor, partial curve, poor fit]"},
      {"smiles": "Cc1ccccc1NC(=O)c1c(C)oc2ccc(O)c(CN3CCCCCC3)c12", "Potency": "inconclusive: 12.6 µM [inhibitor, partial curve, poor fit]"},
      {"smiles": "O=C(c1ccc(-n2cccc2)cc1)N1CCCCC1", "activity change, negative = inhibition": "inactive: 17.5% [at 46.1 µM]"},
      {"smiles": "CN1c2ccccc2C(O)=C(C(=O)Nc2ccccc2)S1(=O)=O", "Potency": "inconclusive: 5.62 µM [inhibitor, partial curve, poor fit]"},
      {"smiles": "COc1ccc(Cn2c(=O)[nH]c3cc(C(=O)NCCCN4CCCCCC4)ccc3c2=O)cc1", "Potency": "inconclusive: 12.6 µM [inhibitor, partial curve, poor fit]"},
      {"smiles": "COc1ccc(/C=C/CN2CCN(CC(C)C)C(CCO)C2)cc1", "note": "(configuration not stated)", "activity change, negative = inhibition": "inactive: -4.48% [at 46.1 µM]"},
      {"smiles": "FC(F)(F)c1cc(-c2ccco2)nc(NCc2ccc(Cl)cc2)n1", "Potency": "inconclusive: 25.9 µM [inhibitor, partial curve]"},
      {"smiles": "O=C(N/N=C/c1c(O)n(-c2ccccc2)c(=S)[nH]c1=O)c1ccccc1", "Potency": "inconclusive: 6.31 µM [activator, single point]"},
      {"smiles": "O=c1c2ccccc2nc(SCc2ccc([N+](=O)[O-])cc2)n1CCCO", "Potency": "inconclusive: 22.4 µM [inhibitor, single point]"},
      {"smiles": "COc1cccc(NC(=O)CCC2CCN(C(=O)c3sccc3C)CC2)c1", "Potency": "inconclusive: 3.98 µM [activator, partial curve, poor fit]"},
      {"smiles": "CCN(CC)CCC(=O)Nc1cccc2c1C(=O)c1ccccc1C2=O", "Potency": "inconclusive: 35.5 µM [inhibitor, single point]"},
      {"smiles": "Cc1ccc(/C=N/Nc2ccccn2)s1", "Potency": "inconclusive: 35.5 µM [inhibitor, single point]"},
      {"smiles": "COC(=O)Cn1c(=NC(=O)c2ccc(Cl)s2)sc2cc(F)ccc21", "Potency": "inconclusive: 0.891 µM [activator, partial curve]"},
      {"smiles": "O=C(CN1C(=O)C2CC=CCC2C1=O)Nc1nc2ccc(F)cc2s1", "note": "(configuration not stated)", "activity change, negative = inhibition": "inactive: -4.6%"},
      {"smiles": "C=CCn1c(SCC(N)=O)nnc1-c1cc2c(s1)CCC(CC)C2", "note": "(configuration not stated)", "Potency": "inconclusive: 17.8 µM [activator, single point]"},
      {"smiles": "N#CCc1ccc(NC(=O)Cn2c(=O)oc3ccccc32)cc1", "Potency": "inconclusive: 2.51 µM [inhibitor, partial curve, poor fit]"},
      {"smiles": "Nc1ccc2nc(-c3ccc(N)c(Cl)c3)[nH]c2c1", "Potency": "inconclusive: 11.2 µM [inhibitor, partial curve]"},
      {"smiles": "COC(=O)Cn1c(C)nc([N+](=O)[O-])c1Br", "Potency": "inconclusive: 0.562 µM [activator, full curve, poor fit]"},
      {"smiles": "Cc1nn(Cc2ccc(F)cc2)c(C)c1NC(=O)c1noc2c1CCc1ccccc1-2", "Potency": "inconclusive: 35.5 µM [inhibitor, partial curve, poor fit]"},
      {"smiles": "O=C(Nc1ccc(S(=O)(=O)N2CCCC2)cc1)C1CC(=O)N(c2ccc(F)cc2)C1", "note": "(configuration not stated)", "activity change, negative = inhibition": "inactive: -2.59% [at 46.1 µM]"},
      {"smiles": "O=C(N/N=C1/C[C@@H](O)[C@@H](O)[C@@H]2[C@@H]3C(=O)N(C[C@@H]4CCCO4)C(=O)[C@H]3CC[C@@H]12)OCc1ccccc1", "activity change, negative = inhibition": "inactive: -4.67% [at 14.2 µM]"},
      {"smiles": "CCOC(=O)CSC1=NC(=O)/C(=C/c2ccc(OC)cc2)S1", "Potency": "inconclusive: 35.5 µM [inhibitor, partial curve, poor fit]"},
      {"smiles": "COc1ccc(CN(C)CC(=O)Nc2ccccc2-c2ccccc2)c(OC)c1", "Potency": "inconclusive: 11.2 µM [inhibitor, partial curve, poor fit]"},
      {"smiles": "CCOc1ccc2nc(NC3=NC(c4ccc(OC)cc4)CC(=O)N3)nc(C)c2c1", "note": "(configuration not stated)", "Potency": "inconclusive: 18.3 µM [inhibitor, single point]"},
      {"smiles": "O=C(CN1C(=O)NC2(CCCCC2)C1=O)Nc1nc2c(F)cc(F)cc2s1", "Potency": "inconclusive: 35.5 µM [activator, single point]"},
      {"smiles": "Cc1cccnc1NC1(C(F)(F)F)N=C2SCCN2C1=O", "note": "(configuration not stated)", "Potency": "inconclusive: 5.62 µM [activator, single point]"},
      {"smiles": "COc1cccc(C(=O)COc2ccc3c(C)c(Cc4ccccc4)c(=O)oc3c2)c1", "Potency": "inconclusive: 35.5 µM [activator, partial curve, poor fit]"},
      {"smiles": "CCCc1cc(=O)[nH]c(Nc2cc(Cl)cc(Cl)c2)n1", "Potency": "inconclusive: 35.5 µM [inhibitor, single point]"},
      {"smiles": "O=C(COc1cccc2ccccc12)NNC(=O)c1cccs1", "activity change, negative = inhibition": "inactive: 22.1%"},
      {"smiles": "COc1cc(C(=O)N/N=C(\\C)c2ccc3c(c2)OCO3)cc(OC)c1OC", "Potency": "inconclusive: 10 µM [inhibitor, single point]"},
      {"smiles": "Cc1ccc(F)cc1NC(=O)CCOc1ccccc1", "activity change, negative = inhibition": "inactive: -22.1% [at 46.1 µM]"}
    ]}
  ]
}
